Results deposited as PubChem BioAssay AID1259308 (NCATS, 2017).

- Assay: 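Genes whose loss raises luciferase production in HEK293 cells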 (primary screen)
- System: human HEK293 embryonic kidney cells stably expressing firefly luciferase (HEK-CMV-Luc2-Hygro)
- Reagents: single siRNA against human genes, 0.8 pmol siRNA per well
- Time to read-out: 72 h
- Detection: 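Reporter luminescence and viable-cell signal on separate replicate plates, given as percent of non-targeting control and median/MAD z-scores, plus per-cell luciferase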
- Direction: total luciferase, z-score and total luciferase, % of control: higher = more reporter protein produced; luciferase per cell, z-score: higher = more reporter output per viable cell; viable cells, % of control: higher = more viable cells
- Hit rule: 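Active when the median/MAD z-score for overall luciferase is greater than 3; a gene was taken forward for validation with new siRNAs if at least two of its three siRNAs passed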
- Calls: active = raised luciferase; inactive = no rise
The deposit covers about 59,000 reagents; shown is a part drawn at random. About 1,510 of all reagents (2.6%) were called active. 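Calls use total luciferase alone and ignore viability, so some active siRNAs may act by altering cell number.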 Reagents against one gene are numbered here. No sequences are given here.

gene symbol	reagent no.	total luciferase, z-score	total luciferase, % of control	luciferase per cell, z-score	viable cells, % of control	call
TMTC2 (GeneID 160335)	1	-1.41	53.9	-0.54	69.4	inactive
TMTC2 (GeneID 160335)	2	-0.244	77	0.443	76.6	inactive
TMTC2 (GeneID 160335)	3	-0.429	73.3	-1.09	109	inactive
CSN3 (GeneID 1448)	1	0.51	92	0.362	93.5	inactive
CSN3 (GeneID 1448)	2	-0.692	68.1	-0.743	92.6	inactive
CSN3 (GeneID 1448)	3	2.49	131	1.91	88.9	inactive
LINC00926 (GeneID 283663)	1	-0.343	75.1	-0.421	93.7	inactive
LINC00926 (GeneID 283663)	2	1.43	110	0.767	101	inactive
LINC00926 (GeneID 283663)	3	2.05	123	1.98	81.3	inactive
KDM4B (GeneID 23030)	1	-0.482	72.3	-0.943	104	inactive
KDM4B (GeneID 23030)	2	0.59	93.6	0.53	91	inactive
KDM4B (GeneID 23030)	3	0.278	87.4	0.446	86.9	inactive
RLIM (GeneID 51132)	1	0.55	92.8	0.978	80.2	inactive
RLIM (GeneID 51132)	2	1.3	108	2.73	58.8	inactive
RLIM (GeneID 51132)	3	-1.47	52.7	-1.68	91.7	inactive
ZNF45 (GeneID 7596)	1	-0.0368	81.2	-0.022	91.2	inactive
ZNF45 (GeneID 7596)	2	0.873	99.2	1.15	81.9	inactive
ZNF45 (GeneID 7596)	3	0.533	92.5	0.572	88.9	inactive
PDE3B (GeneID 5140)	1	-0.0839	80.2	-0.44	101	inactive
PDE3B (GeneID 5140)	2	0.152	84.9	-0.68	113	inactive
PDE3B (GeneID 5140)	3	-0.504	71.9	-0.0666	81.7	inactive
TRIM37 (GeneID 4591)	1	-0.0931	80	-0.351	98.1	inactive
TRIM37 (GeneID 4591)	2	-0.26	76.7	0.0712	84.1	inactive
TRIM37 (GeneID 4591)	3	-0.458	72.8	-0.611	95.5	inactive

Just “viable cells, % of control” (2 entries from above):
TRIM37 (GeneID 4591) #1: 98.1
TRIM37 (GeneID 4591) #2: 84.1
